# Results taken from PMC12481014.
# By UniProt entry, the sequences of proteins in these tests, tags left out. Residues count along the entry.
# UniProt P57682, residues 1-262: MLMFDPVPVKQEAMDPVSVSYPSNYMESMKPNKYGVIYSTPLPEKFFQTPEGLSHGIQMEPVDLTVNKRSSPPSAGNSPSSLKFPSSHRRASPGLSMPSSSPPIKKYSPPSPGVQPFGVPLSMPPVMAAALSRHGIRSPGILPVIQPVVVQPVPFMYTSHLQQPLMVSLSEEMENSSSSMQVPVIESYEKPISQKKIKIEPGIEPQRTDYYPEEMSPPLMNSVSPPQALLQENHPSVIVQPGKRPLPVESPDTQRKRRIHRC
# UniProt Q92769: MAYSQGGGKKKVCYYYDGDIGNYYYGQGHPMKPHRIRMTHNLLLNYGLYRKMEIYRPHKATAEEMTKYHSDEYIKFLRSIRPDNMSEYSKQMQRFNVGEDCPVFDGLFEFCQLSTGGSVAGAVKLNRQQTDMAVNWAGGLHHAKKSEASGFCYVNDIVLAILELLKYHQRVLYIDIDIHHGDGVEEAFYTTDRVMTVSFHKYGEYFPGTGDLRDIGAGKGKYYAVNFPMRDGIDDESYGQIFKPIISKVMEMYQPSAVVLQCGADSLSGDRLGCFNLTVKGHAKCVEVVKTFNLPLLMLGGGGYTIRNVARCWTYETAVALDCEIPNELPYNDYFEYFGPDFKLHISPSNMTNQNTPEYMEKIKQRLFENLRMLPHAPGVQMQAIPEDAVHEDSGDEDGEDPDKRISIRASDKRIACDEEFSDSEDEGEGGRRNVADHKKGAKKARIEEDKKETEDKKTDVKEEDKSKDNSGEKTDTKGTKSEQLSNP
# UniProt Q9P2R6: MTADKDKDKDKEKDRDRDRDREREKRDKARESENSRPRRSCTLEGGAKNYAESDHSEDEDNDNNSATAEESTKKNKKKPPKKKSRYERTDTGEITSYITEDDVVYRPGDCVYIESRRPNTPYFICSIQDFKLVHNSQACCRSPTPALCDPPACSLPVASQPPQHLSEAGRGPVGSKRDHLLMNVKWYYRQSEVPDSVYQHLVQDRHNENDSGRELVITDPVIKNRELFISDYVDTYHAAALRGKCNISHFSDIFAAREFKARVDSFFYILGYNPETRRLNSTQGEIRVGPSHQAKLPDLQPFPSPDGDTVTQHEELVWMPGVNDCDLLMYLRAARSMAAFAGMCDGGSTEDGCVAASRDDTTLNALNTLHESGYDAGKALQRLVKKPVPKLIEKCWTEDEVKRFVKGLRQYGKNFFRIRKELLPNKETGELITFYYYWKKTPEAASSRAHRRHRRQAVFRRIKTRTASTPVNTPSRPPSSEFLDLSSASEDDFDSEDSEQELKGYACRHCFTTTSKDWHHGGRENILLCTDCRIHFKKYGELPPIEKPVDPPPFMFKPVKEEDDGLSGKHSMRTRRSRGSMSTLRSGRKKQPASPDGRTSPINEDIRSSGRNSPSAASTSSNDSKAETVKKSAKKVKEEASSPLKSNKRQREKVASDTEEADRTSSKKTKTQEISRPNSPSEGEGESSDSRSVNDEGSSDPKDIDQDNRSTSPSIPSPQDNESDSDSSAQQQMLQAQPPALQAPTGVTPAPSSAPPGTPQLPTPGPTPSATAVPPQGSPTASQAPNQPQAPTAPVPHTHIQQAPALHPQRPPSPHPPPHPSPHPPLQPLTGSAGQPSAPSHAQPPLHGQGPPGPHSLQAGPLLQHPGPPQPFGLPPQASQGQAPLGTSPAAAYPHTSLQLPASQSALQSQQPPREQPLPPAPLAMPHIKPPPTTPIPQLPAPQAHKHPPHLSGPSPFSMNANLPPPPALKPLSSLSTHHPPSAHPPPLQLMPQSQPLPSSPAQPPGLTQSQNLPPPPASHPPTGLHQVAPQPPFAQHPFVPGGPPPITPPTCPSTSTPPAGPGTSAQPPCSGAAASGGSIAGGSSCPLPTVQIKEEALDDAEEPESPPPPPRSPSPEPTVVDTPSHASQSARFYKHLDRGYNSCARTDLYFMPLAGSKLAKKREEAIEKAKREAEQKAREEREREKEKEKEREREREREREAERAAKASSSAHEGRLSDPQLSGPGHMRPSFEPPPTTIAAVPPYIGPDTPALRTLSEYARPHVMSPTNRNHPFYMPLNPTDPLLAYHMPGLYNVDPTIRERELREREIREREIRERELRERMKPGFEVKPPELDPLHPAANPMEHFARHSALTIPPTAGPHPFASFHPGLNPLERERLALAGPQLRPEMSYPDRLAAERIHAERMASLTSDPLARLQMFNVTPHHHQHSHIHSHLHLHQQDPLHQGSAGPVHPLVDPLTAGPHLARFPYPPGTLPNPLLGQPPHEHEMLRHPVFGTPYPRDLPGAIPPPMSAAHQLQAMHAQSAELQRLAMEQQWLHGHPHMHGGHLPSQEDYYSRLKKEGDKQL
# Results are given in words; binding and its absence hold for the method and conditions named. Binding seen in cells or lysates may run through a third protein. A yes stands for co-enrichment or nearness to the bait. Other partners may have been found.
# Target: V5-epitope-tagged human KLF3 functional domain fragment, KLF3-FD-V5 (1–262) (human) (UniProt P57682)
# Experiment: affinity purification with mass spectrometry; anti-V5 antibody and protein G Dynabeads on nuclear lysate (RIPA: 50 mM Tris pH 7.5, 150 mM NaCl, 1% NP-40) of HEK293 cells stably expressing KLF3-FD-V5; washes with 75 mM NaCl RIPA; duplicate experiments; proteins found in empty vector cells discarded
row,Substance,binding
1,CtBP2 (from UniProt P56545 1-445),binds
2,HDAC2 (from UniProt Q92769 1-488),binds
3,RERE (from UniProt Q9P2R6 1-1566),binds
